Consider 36 sequences from the supplement of paper PMC12764529.

The nature of data set [1]: folding stability dG unfold from trypsin proteolysis; higher = more stable. In outline: (§1)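 Bayesian fitting of sequencing counts gave K50 for each design. Unfolding free energy followed by setting this against a sequence-predicted unfolded-state K50 and a shared folded-state K50, either per protease or with trypsin and chymotrypsin combined. The designs, under 80 residues and lacking cysteine, were digested in a PA-tagged cDNA display format at 11 threefold-diluted protease concentrations and without protease, and only those with AlphaFold2 dimer inter-PAE above 15 were kept.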

A short description of data set [2]: folding stability dG unfold from chymotrypsin proteolysis; higher = more stable. In outline: as §1
Data set [3] in a line: folding stability dG unfold (combined trypsin and chymotrypsin); higher = more stable. In outline:
as §1

± gives the half width of the 95% confidence interval. The two proteases of the assay disagree for many of these sequences.

“SAGGSAKELTAEELAKKIAEKLKELYPNVEVKVEVKKKKDGTIVVTIYVRDKKTGEWKKIKEITLKSAGGSA [r15_682_TrROS_Hall]”: the results for the “folding stability dG unfold” value in data set [1], in data set [2] and in data set [3] were 2.17 ± 0.24 kcal/mol, 4.59 ± 0.28 kcal/mol and 4.68 ± 0.94 kcal/mol, respectively.
As for “SAGGSAMKFKIVSVEYDKETKTIRVKVEVDGKLVEIEIKIEKPPPVKIEIEAPSEEEKKKLEELLKSAGGSA [r15_42_TrROS_Hall]”, the “folding stability dG unfold” value came to 1.35 ± 0.44 kcal/mol in data set [1], 4.15 ± 0.19 kcal/mol in data set [2] and 3.1 ± 0.38 kcal/mol in data set [3].
With “SAGGSAPADPRPSRVRVFLPALGLEVEVEVTTFADGTVVAHLGFPGPYLLTVTVTPTGATATLVAGSAGGSA [r2_109_TrMRF]”, the “folding stability dG unfold” value in data set [1] worked out at 1.53 ± 0.15 kcal/mol; in data set [2], 4.01 ± 0.052 kcal/mol; in data set [3], 3.53 ± 0.11 kcal/mol.
Consider “SAGGSSMARVVGYRPDSATVEIVFPGTGKVTTVPFTGTLEEIKERLSALGKELGLPIDFEFLSPELSAGGSA [r2_161_JUSTAS]”, for which the “folding stability dG unfold” value is 0.204 ± 0.086 kcal/mol in data set [1], 2.29 ± 0.022 kcal/mol in data set [2] and 1.69 ± 0.1 kcal/mol in data set [3].
With “SAKITIYSPNGRPIEIEIPPGYKIENVHIHPGMGHIAIKFKPPGDGKEYSIMLHVHPGGDMDISIQPRESAG [r14_311_TrROS]”, the entries for the “folding stability dG unfold” value in data set [1], in data set [2] and in data set [3] were 1.94 ± 0.09 kcal/mol, 4.2 ± 0.16 kcal/mol and 3.39 ± 0.18 kcal/mol, respectively.
For “SMTVVIDIPPEVPVPGSGSVRPVPVEEVLKRVEEAMAKGKKVVVTGRDPKHPLVQEVAARLEELGVEVVGSA [r9_468_JUSTAS]”, in that order: 0.342 ± 0.029 kcal/mol, 0.71 ± 0.016 kcal/mol and 0.59 ± 0.054 kcal/mol.
“SAGGSAGGSAKVKIKILSKTEDTLTLLIELPDNKVILIKYKIKPTKDGGFELEVTEVIELPSAGGSAGGSAG [r3_116_TrMRF]”: the “folding stability dG unfold” value worked out at 2.6 ± 0.12 kcal/mol in data set [1], 4.61 ± 0.17 kcal/mol in data set [2] and 4.16 ± 0.2 kcal/mol in data set [3].
“SAGGSAPVRVVEIDMTPEELEAALAALEAAEPGETVVVRLRLPDGGEVTLRFRRVEDGEWEVELEPSAGGSA [r15_228_TrROS_Hall]”: the “folding stability dG unfold” value in data set [1] is 1.96 ± 0.058 kcal/mol; in data set [2] it was 4.39 ± 0.056 kcal/mol; in data set [3] it was 4 ± 0.11 kcal/mol.
Consider “SAGGSAGGSAGGTIWIPIDTPDEIKELAENFGFKVEMEKRDDGWVWVKIEIVPPEENKRSAGGSAGGSAGGS [r10_218_TrROS]”, for which the “folding stability dG unfold” value in data set [1] was determined as 0.0436 ± 0.12 kcal/mol; in data set [2], 3.54 ± 0.25 kcal/mol; in data set [3], 2.11 ± 0.5 kcal/mol.
Consider “SAGGSQEEAEELLAREVVAPPVTDPSTGRTYPGTRLRVLDVELDENSESIRVRAETPEGEVELLLESAGGSA [r2_314_JUSTAS]”, for which the “folding stability dG unfold” value in data set [1] is -0.901 ± 0.82 kcal/mol; in data set [2], 1.29 ± 0.055 kcal/mol; in data set [3] it was 0.895 ± 0.073 kcal/mol.
“SAGGSAGGSAGGMVELVSIEQDPKGTVTATFRLPNGELRTFVFSSSDPAAIEAAAAALASAGGSAGGSAGGS [r10_472_JUSTAS]”: the figures for the “folding stability dG unfold” value in data set [1], in data set [2] and in data set [3] were 2.16 ± 0.041 kcal/mol, 4.298 ± 0.039 kcal/mol and 4.03 ± 0.15 kcal/mol, respectively.
As for “MKVEIKIEYDKETGKLRIEITIKDKNGKELKIEFEVLPNGKVKVKIYDKNGKLVKEIEFDSLEEALKAILSS [r1_478_TrROS_Hall]”, the “folding stability dG unfold” value in data set [1] was 3.39 ± 0.17 kcal/mol; in data set [2], 5.47 ± 0.81 kcal/mol; in data set [3] it was more than 6 kcal/mol.
Regarding “SAGGSAGGSAGGVDPGSDGGVTVDKGDGDLVTLTTTDPNNPGAPVTVTTVPVSAVSPELLSAGGSAGGSAGG [r7_761_JUSTAS]”, the “folding stability dG unfold” value in data set [1] was 1.41 ± 0.049 kcal/mol; in data set [2] it was -1.5 ± 0.24 kcal/mol; in data set [3] it was 0.63 ± 0.053 kcal/mol.
On to “SAGGMTLEFTLPDGLRVRVELELRDGTLRLRVEVERDGELLTLELEIRLPPPPPPVVRAPSAEEAERASAGG [r13_691_TrROS_Hall]”, for which the “folding stability dG unfold” value in data set [1] turned out to be 1.22 ± 0.1 kcal/mol; in data set [2], 3.32 ± 0.33 kcal/mol; in data set [3] it was 2.84 ± 0.63 kcal/mol.
For “SAGGSAGGSMKVETLPGEFTITLPNGEEMKLTTEREIRPESGEIRVKITEPGTGKEYEEELPLSAGGSAGGS [r20_71_JUSTAS]”, the “folding stability dG unfold” value was 2.7 ± 0.23 kcal/mol in data set [1], 0.515 ± 0.13 kcal/mol in data set [2] and 1.25 ± 0.32 kcal/mol in data set [3].
Take “SAGGAPNWKIEKIEIEYPGRKIEVWRHDNMWFIHIPAPPGYPIRIKIKIEPDNGETQTQERTFPIPPPSAGG [r13_191_TrROS]”: the results for the “folding stability dG unfold” value in data set [1], in data set [2] and in data set [3] were 1.75 ± 0.061 kcal/mol, 2.83 ± 0.073 kcal/mol and 2.37 ± 0.35 kcal/mol, respectively.
Take “SAGGKIIEIEAPPADPLKTAKAIADEILAEAKKKGKKVDYTVIITFPDGSKYVITIDGNGKILKIDPVSAGG [r13_965_TrMRF]”: the entries for the “folding stability dG unfold” value in data set [1], in data set [2] and in data set [3] were 1.05 ± 0.063 kcal/mol, 3.26 ± 0.087 kcal/mol and 2.95 ± 0.15 kcal/mol, respectively.
“SLLEDFKITEIEPHQMPGGSPMITFRFGGYTIMINPGNGHYWIWVDGKIIFTIMIPVVPPDPNSPEDRKNSA [r9_1065_TrROS]”: the “folding stability dG unfold” value in data set [1] was 2.69 ± 0.23 kcal/mol; in data set [2], 5.3 ± 0.25 kcal/mol; in data set [3] it was 4.1 ± 0.55 kcal/mol.
For “SAGGSMKIELFEDGYLRIVFPADKPELVEEIKKLAEELGLEYELFYDPEKPYVVALFKVPKELLEKSAGGSA [r2_224_TrMRF]”, in that order: 1.13 ± 0.032 kcal/mol, 3.28 ± 0.022 kcal/mol and 2.82 ± 0.12 kcal/mol.
In the case of “SAGGMEIEIEVFEFENKIVILVKADNPIETIKLIINLIKEKFSAKPYEVKVEELPDGYLLIVFDLKPESAGG [r13_158_TrMRF]”, the “folding stability dG unfold” value was determined as 2.58 ± 0.092 kcal/mol in data set [1], 5.33 ± 0.17 kcal/mol in data set [2] and 5.31 ± 0.24 kcal/mol in data set [3].
As for “SAGGSAGGSAGIVIPLDGRPIVIDMYPNGYMRIEVEPPNGKKKTRTFPGAPIEDILKAIKSAGGSAGGSAGG [r11_934_TrROS]”, the “folding stability dG unfold” value is -0.695 ± 0.71 kcal/mol in data set [1], -0.0199 ± 0.12 kcal/mol in data set [2] and -0.204 ± 0.28 kcal/mol in data set [3].
For “SKTITLKPGQTLTITLTLTFPKDVKKVTLKVEITYNGKKYTETKTFTTKDGKTVTITLTIKLPPGAEIKISA [r9_973_TrROS_Hall]”, in that order: 2.84 ± 0.2 kcal/mol, 5.34 ± 0.17 kcal/mol and 5.09 ± 0.48 kcal/mol.
With “SAMVLKVEEEPFPPNAKREVKEIRKDPNSDNLFKVKIELEKSPDPSVTSAKVITIPPDGSKKVEEKVLESAG [r14_10_JUSTAS]”, the “folding stability dG unfold” value in data set [1] worked out at 0.514 ± 0.27 kcal/mol; in data set [2] it was 0.47 ± 0.19 kcal/mol; in data set [3], 0.508 ± 0.59 kcal/mol.
The corresponding values for “SAGIEEIAKKLGLPIKERREVFEDPETGRRYALVVFKLPDGTYVVIFVDLTNPGDVKVEKRSPTEKLPSAGG [r19_72_JUSTAS]” are 0.915 ± 0.02 kcal/mol, 2.982 ± 0.021 kcal/mol and 2.41 ± 0.075 kcal/mol.
With “SAGGSMSTKTLDNAPDDVGTLVTETTTTYDPVTNTTTVTTTTTLVDSAGNVLTPEPSTTTLAPPGSTSAGGS [r8_387_JUSTAS]”, the “folding stability dG unfold” value in data set [1] is -1.21 ± 0.13 kcal/mol; in data set [2] it was 1.14 ± 0.064 kcal/mol; in data set [3] it was 0.76 ± 0.07 kcal/mol.
For the sequence “SAGGSAGGSSFSVEVIENPDSDVILRKIHFDNFTVIPLFDPSTGKIVSVVVQFPDGSWYTFPLSAGGSAGGS [r12_563_TrMRF]”, the “folding stability dG unfold” value worked out at 2.18 ± 0.1 kcal/mol in data set [1], 2.78 ± 0.053 kcal/mol in data set [2] and 2.51 ± 0.11 kcal/mol in data set [3].
The corresponding values for “SAGGMLVTLALTNEDGTVHTLALYVDEDGNLTVTDSESYPATATFTDADGVPHTAPVTVTKEKVAPDSAGGS [r8_270_TrMRF]” are -1.1 ± 0.41 kcal/mol, 1.32 ± 0.036 kcal/mol and 0.764 ± 0.16 kcal/mol.
For “SIEIYEGPEEAEEMAEENGTPVIPIPPDMNLSEILKQLKNQPGLPPDQKIVIVIQWEPGQWYVIRIPIKPSA [r9_314_TrROS]”, the “folding stability dG unfold” value in data set [1] stood at 2.05 ± 0.059 kcal/mol; in data set [2], 2.734 ± 0.022 kcal/mol; in data set [3], 2.53 ± 0.091 kcal/mol.
The corresponding values for “SAGGSASMSKTTTETSPDSETTTTTYYPNGTVTTTKTTTVGEGTTTTTTTTKVLFIPGPGVLVPEPSAGGSA [r15_746_JUSTAS]” are -0.174 ± 0.045 kcal/mol, 0.514 ± 0.062 kcal/mol and 0.259 ± 0.046 kcal/mol.
With “DRIEIDVEMYDGYFYKIEIRWPGNGEPRELMFPGSLSEAKDFAEDLIQEQHPGAPVDEIDVEPVPMPPGDFS [r1_80_TrROS]”, the “folding stability dG unfold” value worked out at 0.683 ± 0.2 kcal/mol in data set [1], 2.01 ± 0.05 kcal/mol in data set [2] and 1.69 ± 0.19 kcal/mol in data set [3].
For the sequence “SAGGIVVGEEGVVRITGPGEPVIIPLPENSEVVEIDVPDDGYVRITLRVDGKTVTVDFPSAPPGLTLSAGGS [r16_635_TrMRF]”, the “folding stability dG unfold” value in data set [1] was 1.34 ± 0.038 kcal/mol; in data set [2], 0.355 ± 0.041 kcal/mol; in data set [3], 0.927 ± 0.051 kcal/mol.
For the sequence “SAGGSAIEELAKKLPGAKVEVVEEKEGTVYLKVKLKDGSYLKISITYDKETKEKTIKIEKVPKEELSAGGSA [r15_547_TrROS_Hall]”, the “folding stability dG unfold” value was determined as 1.91 ± 0.069 kcal/mol in data set [1], 4.377 ± 0.032 kcal/mol in data set [2] and 4.01 ± 0.14 kcal/mol in data set [3].
Regarding “SAGGSAGGSAGGKDKTITKTIKVEVYTLKKDKKTGKWTPTEKFTVTLTVTVKVKPGEKISAGGSAGGSAGGS [r10_610_TrROS_Hall]”, the “folding stability dG unfold” value in data set [1] was found to be 2.16 ± 0.067 kcal/mol; in data set [2], 4.6 ± 0.082 kcal/mol; in data set [3], 4.19 ± 0.15 kcal/mol.
On to “SAGGSAGGSAGMTVTTITKTYPFDPNKSLSFTVPPGATITDKKTDADIAKGTVTVTVTVASAGGSAGGSAGG [r11_701_JUSTAS]”, for which the figures for the “folding stability dG unfold” value in data set [1], in data set [2] and in data set [3] were 0.345 ± 0.053 kcal/mol, 0.355 ± 0.13 kcal/mol and 0.436 ± 0.13 kcal/mol, respectively.
“SAGGSAGGSAAVVVPAPADTTVTLTLELEFEVPPDWTLPDGTRLKAGEKVRLTVTATFRVEGSAGGSAGGSA [r18_450_TrMRF]”: the results for the “folding stability dG unfold” value in data set [1], in data set [2] and in data set [3] were 0.72 ± 0.05 kcal/mol, 3.67 ± 0.093 kcal/mol and 2.96 ± 0.22 kcal/mol, respectively.
Take “SAGGSARFTSIDIEKHGDYISVRATWRNPNGNWQEMNIMIRVPPVPPPPPIKPKRDPDNGEPKYDNSAGGSA [r15_335_TrROS]”: the “folding stability dG unfold” value in data set [1] amounted to 2.19 ± 0.087 kcal/mol; in data set [2] it was 4.47 ± 0.43 kcal/mol; in data set [3], 3.47 ± 0.33 kcal/mol.
